# Experimental data published in the supplement of paper PMC8728848.
# The other results are listed elsewhere or left out.
# B1: Mnn9-2N3 (Aspergillus fumigatus) (protein)
# chain: MAVARRMRRTNPITLLLAAILAIGFFIFVLSPSTTSASPVKAGSASSSSTSQQRREDNAAENPLSPPTKPFFKSQPVRHDGQQAPPPVVQYNLNQLSSTSTSAANGERILILTPMARFVPEYWDNVVKLTYPHELISIGFIIPKNKEGNAALAALEAAIAKTQSGPIDKRFASISILRQDFEPPLQSQDEKERHKISNQKARRESMSRARNSLLFTTLGPATAWVLWLDADIVETPPTLIQDLTAHDHPVLVPNCYQRYYNSEKKKMDVRPYDYNSWIDSSTAQSMAAEMGPDEILLEGYAEMPTYRTLMAHLADTANPNPKKVIELDGVGGTALMVKAEVHRDGAMFPAFPFYHLVETEGFAKMAKRLGYSVYGLPDYFVSRNFFFFFFFFFFG
# Tests used:
# Assay in all cases: glycan array binding signal (z-score within array); higher = stronger binding
# Conditions in all cases: glycan notation: IUPAC condensed, linker removed
# Fuc(a1-3)GlcNAc = biological target: Fuc(a1-3)GlcNAc
# Method in brief: (§1)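 The Consortium for Functional Glycomics database supplied 3228 glycan arrays, of which those lacking an available protein sequence were dropped. The binding signal, a within-array Z-score, was averaged across arrays of the same protein sequence and across linkers. Negative scores can be read as non-binding.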
# [1] = biological target: Fuc(a1-3)[Gal(b1-4)]Glc6S
# Method in brief: as §1
# [2] = biological target: Fuc(a1-3)[Gal(b1-4)]GlcNAc
# Method in brief: as §1
# [3] = biological target: Fuc(a1-3)[Gal(b1-4)]GlcNAc(b1-2)Man
# Method in brief: as §1
# [4] = biological target: Fuc(a1-3)[Gal(b1-4)]GlcNAc(b1-2)Man(a1-3)[Fuc(a1-3)[Gal(b1-4)]GlcNAc(b1-2)Man(a1-6)]Man(b1-4)GlcNAc(b1-4)GlcNAc
# Method in brief: as §1
# [5] = biological target: Fuc(a1-3)[Gal(b1-4)]GlcNAc(b1-2)Man(a1-3)[Fuc(a1-3)[Gal(b1-4)]GlcNAc(b1-2)Man(a1-6)]Man(b1-4)GlcNAc(b1-4)[Fuc(a1-6)]GlcNAc
# Method in brief: as §1
# [6] = biological target: Fuc(a1-3)[Gal(b1-4)]GlcNAc(b1-3)Gal(b1-3)[Fuc(a1-4)]GlcNAc
# Method in brief: as §1
# [7] = biological target: Fuc(a1-3)[Gal(b1-4)]GlcNAc(b1-3)Gal(b1-4)[Fuc(a1-3)]GlcNAc
# Method in brief: as §1
# [8] = biological target: Fuc(a1-3)[Gal(b1-4)]GlcNAc(b1-3)Gal(b1-4)[Fuc(a1-3)]GlcNAc(b1-3)Gal(b1-4)[Fuc(a1-3)]GlcNAc
# Method in brief: as §1
# [9] = biological target: Fuc(a1-3)[Gal(b1-4)]GlcNAc(b1-3)GalNAc
# Method in brief: as §1
# [10] = biological target: Fuc(a1-3)[Gal(b1-4)]GlcNAc(b1-6)GalNAc
# Method in brief: as §1
# [11] = biological target: Fuc(a1-3)[Gal(b1-4)]GlcNAc(b1-6)[Gal(b1-3)GlcNAc(b1-3)]Gal(b1-4)Glc
# Method in brief: as §1
# [12] = biological target: Fuc(a1-3)[Gal(b1-4)]GlcNAc6S
# Method in brief: as §1
# [13] = biological target: Fuc(a1-3)[Gal3S(b1-4)]Glc
# Method in brief: as §1
# [14] = biological target: Fuc(a1-3)[Gal3S(b1-4)]GlcNAc
# Method in brief: as §1
# [15] = biological target: Fuc(a1-3)[Gal3S(b1-4)]GlcNAc6S
# Method in brief: as §1
# [16] = biological target: Fuc(a1-3)[GalNAc(b1-4)]GlcNAc
# Method in brief: as §1
# [17] = biological target: Fuc(a1-3)[GalNAc(b1-4)]GlcNAc6S
# Method in brief: as §1
# Fuc(a1-4)GlcNAc = biological target: Fuc(a1-4)GlcNAc
# Method in brief: as §1
# Fuc(b1-3)GlcNAc = biological target: Fuc(b1-3)GlcNAc
# Method in brief: as §1
# Gal(a1-2)Gal = biological target: Gal(a1-2)Gal
# Method in brief: as §1
# Gal(a1-3)Gal = biological target: Gal(a1-3)Gal
# Method in brief: as §1
# Gal(a1-3)Gal(b1-3)GlcNAc = biological target: Gal(a1-3)Gal(b1-3)GlcNAc
# Method in brief: as §1
# [18] = biological target: Gal(a1-3)Gal(b1-3)GlcNAc(b1-2)Man
# Method in brief: as §1
# [19] = biological target: Gal(a1-3)Gal(b1-3)GlcNAc(b1-2)Man(a1-3)[Gal(a1-3)Gal(b1-3)GlcNAc(b1-2)Man(a1-6)]Man(b1-4)GlcNAc(b1-4)GlcNAc
# Method in brief: as §1
# [20] = biological target: Gal(a1-3)Gal(b1-3)GlcNAc(b1-3)GalNAc
# Method in brief: as §1
# [21] = biological target: Gal(a1-3)Gal(b1-3)GlcNAc(b1-6)GalNAc
# Method in brief: as §1
# [22] = biological target: Gal(a1-3)Gal(b1-3)[Fuc(a1-4)]GlcNAc(b1-2)Man(a1-3)[Gal(a1-3)Gal(b1-3)[Fuc(a1-4)]GlcNAc(b1-2)Man(a1-6)]Man(b1-4)GlcNAc(b1-4)GlcNAc
# Method in brief: as §1
# Gal(a1-3)Gal(b1-4)Glc = biological target: Gal(a1-3)Gal(b1-4)Glc
# Method in brief: as §1
# Gal(a1-3)Gal(b1-4)GlcNAc = biological target: Gal(a1-3)Gal(b1-4)GlcNAc
# Method in brief: as §1
binder,measurement,setting,value
B1,glycan array binding signal (z-score),Fuc(a1-3)GlcNAc,-0.297
same,glycan array binding signal (z-score),[1],-0.104
same,glycan array binding signal (z-score),[2],0.158
same,glycan array binding signal (z-score),[3],1.55
same,glycan array binding signal (z-score),[4],-0.336
same,glycan array binding signal (z-score),[5],-1.5
same,glycan array binding signal (z-score),[6],-0.18
same,glycan array binding signal (z-score),[7],-0.041
same,glycan array binding signal (z-score),[8],-0.131
same,glycan array binding signal (z-score),[9],-0.082
same,glycan array binding signal (z-score),[10],-0.641
same,glycan array binding signal (z-score),[11],-0.014
same,glycan array binding signal (z-score),[12],-0.346
same,glycan array binding signal (z-score),[13],0.746
same,glycan array binding signal (z-score),[14],-0.377
same,glycan array binding signal (z-score),[15],3.29
same,glycan array binding signal (z-score),[16],-0.066
same,glycan array binding signal (z-score),[17],-0.303
same,glycan array binding signal (z-score),Fuc(a1-4)GlcNAc,-0.368
same,glycan array binding signal (z-score),Fuc(b1-3)GlcNAc,-0.266
same,glycan array binding signal (z-score),Gal(a1-2)Gal,3.25
same,glycan array binding signal (z-score),Gal(a1-3)Gal,-0.434
same,glycan array binding signal (z-score),Gal(a1-3)Gal(b1-3)GlcNAc,0.098
same,glycan array binding signal (z-score),[18],0.145
same,glycan array binding signal (z-score),[19],-0.003
same,glycan array binding signal (z-score),[20],-0.015
same,glycan array binding signal (z-score),[21],-0.452
same,glycan array binding signal (z-score),[22],-0.435
same,glycan array binding signal (z-score),Gal(a1-3)Gal(b1-4)Glc,-1.47
same,glycan array binding signal (z-score),Gal(a1-3)Gal(b1-4)GlcNAc,-0.258

# A stretch from further up, for reference:
binder,measurement,setting,value
B1,glycan array binding signal (z-score),Gal(a1-2)Gal,3.25
same,glycan array binding signal (z-score),Gal(a1-3)Gal,-0.434
